According to article PMC13140326:

Columns and labels:
[1] = biological target: ZmSnRK2.10 in the pRTVcVN vector (BiFC fusion) (maize); experiment: split reporter; BiFC in maize leaf protoplasts; ZmSnRK2.8/2.10 in pRTVcVN, partners in pRTVcVC; 5 ug of each plasmid; YFP signal after 24 h in the dark
[2] = biological target: ZmSnRK2.10 in the pCAMBIA1300-nLuc vector (LCI fusion) (maize); experiment: split reporter; luciferase complementation imaging (LCI) in N. benthamiana leaves; ZmSnRK2.8/2.10 in pCAMBIA1300-nLuc, partners in pCAMBIA1300-cLuc; imaged after 2 days
[3] = biological target: ZmSnRK2.8 in the pRTVcVN vector (BiFC fusion) (maize); experiment: split reporter; BiFC in maize leaf protoplasts; ZmSnRK2.8/2.10 in pRTVcVN, partners in pRTVcVC; 5 ug of each plasmid; YFP signal after 24 h in the dark
[4] = biological target: ZmSnRK2.8 in the pCAMBIA1300-nLuc vector (LCI fusion) (maize); experiment: split reporter; luciferase complementation imaging (LCI) in N. benthamiana leaves; ZmSnRK2.8/2.10 in pCAMBIA1300-nLuc, partners in pCAMBIA1300-cLuc; imaged after 2 days

- binding [1]: no binding
- binding [3]: no binding
B3: Opaque 2 (O2) in the pRTVcVC vector (BiFC fusion) (protein, UniProt P12959 1-453)
chain: MEHVISMEEILGPFWELLPPPAPEPEREQPPVTGIVVGSVIDVAAAGHGDGDMMDQQHATEWTFERLLEEEALTTSTPPPVVVVPNSCCSGALNADRPPVMEEAVTMAPAAVSSAVVGDPMEYNAILRRKLEEDLEAFKMWRADSSVVTSDQRSQGSNNHTGGSSIRNNPVQNKLMNGEDPINNNHAQTAGLGVRLATSSSSRDPSPSDEDMDGEVEILGFKMPTEERVRKKESNRESARRSRYRKAAHLKELEDQVAQLKAENSCLLRRIAALNQKYNDANVDNRVLRADMETLRAKVKMGEDSLKRVIEMSSSVPSSMPISAPTPSSDAPVPPPPIRDSIVGYFSATAADDDASVGNGFLRLQAHQEPASMVVGGTLSATEMNRVAAATHCAGAMELIQTAMGSMPPTSASGSTPPPQIMSCWVQMGPYTWTCIRHCGFRDRWEHFICRRR

- binding [1]: binds
B5: PPDK2 in the pRTVcVC vector (BiFC fusion) (enzyme, UniProt Q42368 1-883)
chain: MAPAPCGRSSQRVFHFGKGKSEGNKNMKELLGGKGANLAEMASIGLSVPPGFTVSTEACQQYQEAGRALPPGLWAEVLDGLRWVEEYMGAALGDPRRPLLLSVRSGAAVSMPGMMDTVLNLGLNDQVAAGLAAKSGDRFAYDSFRRFLDMFGNVVMDIPHALFEEKLEAMKKAKGLKNDTDLTATDLKELVSQYKNVYVEAKGEPFPSDPKRQLELAVLAVFDSWESPRAKKYRSINQITGLRGTAVNVQCMVFGNMGNTSGTGVLFTRNPNTGEKKLYGEFLVNAQGEDVVAGIRTPEDLDAMKDVMPQAYKELVENCRILESHYKEMQDIEFTVQESRLWMLQCRTGKRTGKSAVKIAVDMVNEGLVERRAAIKMVEPGHLDQLLHPQFENPSAYKDQVIATGLPASPGAAVGQVVFTAEDAETWHSQGKSVILVRAETSPEDVGGMHAAAGILTERGGMTSHAAVVARGWGKCCVSGCSGIRVNDAEKVVKIGGNVLREGEWLSLNGSTGEVILGKQPLSPPALSGDLGTFMSWVDDVRKLKVLANADTPEDALAARNNGAEGIGLCRTEHMFFASDERIKAVRQMIMAPTVELRQQALDRLLPYQRSDFEGIFRAMDGLSVTIRLLDPPLHEFLPEGNVEEIVRELCSETGANQEDALARIEKLSEVNPMLGFRGCRLGISYPELTEMQARAIFEAAIAMTNQGVQVFPEIMVPLVGTPQELGHQVALIRQVANKVFTSMGKTIGYKIGTMIEIPRAALVADEIAEQAEFFSFGTNDLTQMTFGYSRDDVGKFIPIYLAQGILQHDPFEVLDQRGVGELVKLATERGRKARPNLKVGICGEHGGEPSSVAFFAKTGLDYVSCSPFRVPIARLAAAQVLV

- binding [2]: binds
B6: PPDK2 in the pCAMBIA1300-cLuc vector (LCI fusion) (enzyme, UniProt Q42368 1-883)
chain: B5 chain

The next lines start with the binder.

B1: GBSSI in the pRTVcVC vector (BiFC fusion) (enzyme, UniProt P04713 73-605)
chain: ASAGMNVVFVGAEMAPWSKTGGLGDVLGGLPPAMAANGHRVMVVSPRYDQYKDAWDTSVVSEIKMGDGYETVRFFHCYKRGVDRVFVDHPLFLERVWGKTEEKIYGPVAGTDYRDNQLRFSLLCQAALEAPRILSLNNNPYFSGPYGEDVVFVCNDWHTGPLSCYLKSNYQSHGIYRDAKTAFCIHNISYQGRFAFSDYPELNLPERFKSSFDFIDGYEKPVEGRKINWMKAGILEADRVLTVSPYYAEELISGIARGCELDNIMRLTGITGIVNGMDVSEWDPSRDKYIAVKYDVSTAVEAKALNKEALQAEVGLPVDRNIPLVAFIGRLEEQKGPDVMAAAIPQLMEMVEDVQIVLLGTGKKKFERMLMSAEEKFPGKVRAVVKFNAALAHHIMAGADVLAVTSRFEPCGLIQLQGMRYGTPCACASTGGLVDTIIEGKTGFHMGRLSVDCNVVEPADVKKVATTLQRAIKVVGTPAYEEMVRNCMIQDLSWKGPAKNWENVLLSLGVAGGEPGVEGEEIAPLAKENVAAP
- binding [1]: binds

B2: GBSSI in the pCAMBIA1300-cLuc vector (LCI fusion) (enzyme, UniProt P04713 73-605)
chain: B1 chain
- binding [2]: binds

B4: Opaque 2 (O2) in the pCAMBIA1300-cLuc vector (LCI fusion) (protein, UniProt P12959 1-453)
chain: B3 chain
- binding [2]: no binding
- binding [4]: no binding

Results are given in words; binding and its absence hold for the method and conditions named. Binding seen in cells or lysates may run through a third protein. For some assays here: Binding calls can cover weak binding; strength is not graded here. Tags and fused reporters may be left off the sequences shown. One block for each binder: values may come before it.
